The chains behind the UniProt entries cited, without tags or fusion partners. Where a name states a change or a piece, a line headed by the entry shows the natural chain unless it says otherwise.
UniProt P46063: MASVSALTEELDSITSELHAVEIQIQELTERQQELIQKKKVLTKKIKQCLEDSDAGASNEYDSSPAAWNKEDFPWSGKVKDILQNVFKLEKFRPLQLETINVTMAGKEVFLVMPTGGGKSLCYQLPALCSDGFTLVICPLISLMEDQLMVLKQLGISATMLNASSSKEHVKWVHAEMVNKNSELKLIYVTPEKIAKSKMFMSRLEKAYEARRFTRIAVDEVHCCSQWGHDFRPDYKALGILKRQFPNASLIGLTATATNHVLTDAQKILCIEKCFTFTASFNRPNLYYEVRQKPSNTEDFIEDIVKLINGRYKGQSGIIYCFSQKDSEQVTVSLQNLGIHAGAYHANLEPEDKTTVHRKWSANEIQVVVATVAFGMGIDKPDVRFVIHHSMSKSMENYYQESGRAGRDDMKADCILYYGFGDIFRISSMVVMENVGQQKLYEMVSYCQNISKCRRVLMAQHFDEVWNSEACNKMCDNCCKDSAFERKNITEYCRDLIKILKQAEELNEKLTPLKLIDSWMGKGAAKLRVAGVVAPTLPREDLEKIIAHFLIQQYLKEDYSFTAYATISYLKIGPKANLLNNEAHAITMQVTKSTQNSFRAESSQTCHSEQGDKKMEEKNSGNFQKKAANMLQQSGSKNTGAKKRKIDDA

Out of some 240,000 compounds screened, about 1,300 (0.54%) were called active. The shares of active, inactive and inconclusive entries below differ from those in the screen. Calls follow the shape of the dose curve; as a rule, active = well fitted inhibition curve with a large enough effect; inconclusive = small, poorly fitted or top-dose-only effect; inactive = flat fitted curve, though single readings scatter. Where the call is inconclusive, the potency comes from a doubtful curve fit.
What follows are compounds tested against ATP-dependent DNA helicase Q1 (Homo sapiens) (UniProt P46063) (assay: qHTS Assay for Inhibitors of RecQ-Like Dna Helicase 1 (RECQ1)). Conditions: RECQ1 DNA unwinding, red fluorescence kinetic read; activity, negative = inhibition: at 57.3 µM (top of the series); series mostly up to 57.3 µM.
Source text: Survival of cells and the faithful propagation of the genome depend on elaborate mechanisms of detecting and repairing DNA damage. Treatment of advanced cancer relies on radiation therapy or chemotherapy, which kill cancer cells by causing extensive DNA damage. It is often found, that cancer cells develop resistance to therapy through enhanced activity of DNA repair functions; this has led to an increased interest in developing drugs that interfere with DNA repair, which could sensitize cancer cells to conventional therapy.
This validation qHTS assay pertains to human RECQ1, which is important in resolving abnormal DNA structures formed during replication or homologous recombination. Shutting down the expression of RECQ1 leads to chromosomal instability and higher radiation sensitivity in cultured cells.
The validation assay was a fluorescence quenching based kinetic qHTS for RECQ1 Helicase DNA unwinding. The activity was measured as ATP-dependent separation of a 20-bp DNA duplex extended by 30-nt single-stranded tails (forked duplex). The forked DNA substrate was tagged with rhodamine fluorophore (carboxytetramethyl rhodamine, TAMRA) and BHQ-2 (Black Hole Quencher 2) dark quencher. Strand separation results in an increase in the fluorescence of TAMRA (excitation 525 nm, emission 598 nm). This substrate construct operates in a red-shifted region where very few compound library members have been noted to fluoresce (PubChem AIDs 593 and 594). An additional feature of the assay is the inclusion of 2.5 ug/ml poly (dIdC), to reduce interference by compounds such as DNA intercalators, a major source of false inhibitors.
Opher Gileadi, Structural Genomics Consortium, University of Oxford
Screening Center PI: Austin, C.P.
Screening Center: NIH Chemical Genomics Center [NCGC]
Three uL of reaction buffer (25 mM Tris-HCl (pH 8.0), 5 mM NaCl, 2 mM MgCl2, 1mM DTT, 0.01% Tween- 20, and 2.5 ug/ml poly(dI-dC), including enzyme (50 nM RECQ1T1), were dispensed into a 1536-well Greiner black assay plate via solenoid-valve based nanoliter dispensers. Compounds (23 nl each in columns 5-48) and control (23 nl each in column 2 as dose-response) were transferred via a Kalypsys pintool equipped with a 1536-pin array. The plates were incubated for 15 min at room temperature, and then 1 ul of substrates (200 nM DNA and 2 mM ATP, final concentrations) was added to start the reaction. The plate was transferred into a ViewLux high-throughput CCD imager where the reaction progress was measured in a discontinuous kinetic mode (two reads spaced 2 hours apart, with intermediate room temperature incubation of the covered assay plate) by using standard red-fluorescence optics (excitation filter 525 nm, emission filter 598 nm). Enzyme-free and vehicle (DMSO) controls were included for signal normalization.
In the case of `Cc1c(CCOC(=O)c2ccc(N3CCOCC3)c([N+](=O)[O-])c2)sc[n+]1CC#N`, the Potency is reported as inconclusive: 35.5 µM [inhibitor, single point]. In the case of `Cc1ccc([N+](=O)[O-])cc1-c1ccc(/C=C(\C#N)c2[nH]nc(N)c2C#N)o1`, the Potency is reported as active: 31.6 µM. In the case of `COCCCNc1ncnc2c1sc1nc(-c3ccco3)c3c(c12)CC(C)(C)OC3`, the “activity, negative = inhibition” value is reported as inactive: 6.6%. In the case of `Cc1ccc(-c2csc(NC(=O)/C=C/c3ccco3)c2C(=O)O)cc1`, the Potency is reported as active: 22.4 µM. For `COc1ccc(Cn2c(N)c(C#N)c3nc4ccccc4nc32)cc1`, the “activity, negative = inhibition” value was inactive: -13.5%. `O=C(N/N=C/c1ccncc1)c1cccc(NC(=O)c2ccc(Cl)cc2)c1` was tested, and the “activity, negative = inhibition” value was inactive: -7.14%. With `CCCC(=O)C1=C(O)C(C(=O)OC)C(C)(C)CC1=Nc1ccc(OC)cc1` (stereo not given) the Potency was inconclusive: 1.41 µM [inhibitor, full curve, poor fit]. In the case of `CCOc1ccc(Cc2c(Cl)nc(SC)nc2OC)cc1`, the Potency is reported as inconclusive: 0.0251 µM [inhibitor, full curve, poor fit]. In the case of `C#CCNC(=O)C1=C[C@H](C2CCCCC2)C[C@H](OCCCCO)O1`, the Potency is reported as inconclusive: 0.0708 µM [inhibitor, partial curve, poor fit]. In the case of `Cc1ccccc1OC1C=CC(C#Cc2ccc(Br)cc2)OC1CO` (stereo not given), the activity, negative = inhibition is reported as inactive: 10.6% [at 11.5 µM]. `COc1ccc(SCC(Cc2ccccc2)N2CCN(CC(C)C)CCC2=O)cc1` (stereo not given) was tested, and the “outcome” value was “inactive”. With `COc1ccc(C(C(=O)NC2CCCC2)N(C(=O)c2snc(-c3ccc(F)cc3)c2N)c2ccc(F)cc2)cc1` (stereo not given) the Potency was inconclusive: 0.447 µM [inhibitor, partial curve, poor fit]. In the case of `C#CCNC(=O)C1=C[C@H](C)[C@@H](CCCO)[C@H](OCC)O1`, the Potency is reported as inconclusive: 39.8 µM [inhibitor, single point]. For `COC/C=C/C1=CC2=CC(=O)C(C)(OC(=O)c3ccc(Cl)nc3)C(=O)C2=CO1` (stereo not given), the Potency was active: 31.6 µM. For `CCOC(=O)Cn1c(=O)oc2cc(S(=O)(=O)NCCc3ccc(C)cc3)ccc21`, the Potency was inconclusive: 0.0355 µM [inhibitor, full curve]. For `O=C1N/C(=C/c2ccco2)C(=O)N1Cc1ccccc1F`, the Potency was active: 11.2 µM. With `O=C(NCc1ccccn1)c1cc(Br)ccc1Cl` the “outcome” value was “inactive”. `CN(C(=S)Nc1cccnc1)c1ccc(O)cc1` was tested, and the Potency was inconclusive: 4.47 µM [inhibitor, single point]. `COc1ccc(NC(=O)Cn2ncc(Cl)c(Cl)c2=O)cc1S(=O)(=O)N1CCOCC1` was tested, and the Potency was inconclusive: 15.8 µM [inhibitor, partial curve]. With `N/C(Cc1ccc(Cl)cc1Cl)=N\OC(=O)c1ccc(Br)o1` the Potency was inconclusive: 0.708 µM [inhibitor, partial curve, poor fit].

— PubChem BioAssay AID2549 (National Center for Advancing Translational Sciences (NCATS), 2010)
Also: nearly all actives have a fitted effect of over 30% in size.
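For activity, negative = inhibition in this document: plate controls were vehicle for no effect and no enzyme for full effect.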
Potency is read from the fitted curve at half-maximal effect.
